Reference: publication PMC8102982
No constants are given. Whether binding was seen depends on the method and setting. In cells and extracts the contact can be indirect. Some entries that bind do so weakly or less than the wild type.

The chains behind the UniProt entries cited, without tags or fusion partners.
UniProt Q13546: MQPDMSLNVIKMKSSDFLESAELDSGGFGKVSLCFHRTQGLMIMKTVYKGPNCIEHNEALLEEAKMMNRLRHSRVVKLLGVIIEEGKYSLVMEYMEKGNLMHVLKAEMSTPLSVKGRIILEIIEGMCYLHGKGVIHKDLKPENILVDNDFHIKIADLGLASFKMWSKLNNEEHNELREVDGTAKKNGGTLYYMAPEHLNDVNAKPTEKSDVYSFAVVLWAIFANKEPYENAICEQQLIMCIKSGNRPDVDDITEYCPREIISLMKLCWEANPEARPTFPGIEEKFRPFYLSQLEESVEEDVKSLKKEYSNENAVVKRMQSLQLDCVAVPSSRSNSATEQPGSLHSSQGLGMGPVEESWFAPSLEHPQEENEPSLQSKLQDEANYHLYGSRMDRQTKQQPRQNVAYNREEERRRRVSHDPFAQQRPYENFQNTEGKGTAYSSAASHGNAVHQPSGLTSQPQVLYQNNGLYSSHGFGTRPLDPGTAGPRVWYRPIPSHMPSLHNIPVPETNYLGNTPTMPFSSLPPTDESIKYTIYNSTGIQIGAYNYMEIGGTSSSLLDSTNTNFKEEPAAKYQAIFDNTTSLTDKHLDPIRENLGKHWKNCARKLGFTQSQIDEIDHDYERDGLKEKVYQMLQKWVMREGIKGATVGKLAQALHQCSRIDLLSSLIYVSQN
UniProt Q9Y572: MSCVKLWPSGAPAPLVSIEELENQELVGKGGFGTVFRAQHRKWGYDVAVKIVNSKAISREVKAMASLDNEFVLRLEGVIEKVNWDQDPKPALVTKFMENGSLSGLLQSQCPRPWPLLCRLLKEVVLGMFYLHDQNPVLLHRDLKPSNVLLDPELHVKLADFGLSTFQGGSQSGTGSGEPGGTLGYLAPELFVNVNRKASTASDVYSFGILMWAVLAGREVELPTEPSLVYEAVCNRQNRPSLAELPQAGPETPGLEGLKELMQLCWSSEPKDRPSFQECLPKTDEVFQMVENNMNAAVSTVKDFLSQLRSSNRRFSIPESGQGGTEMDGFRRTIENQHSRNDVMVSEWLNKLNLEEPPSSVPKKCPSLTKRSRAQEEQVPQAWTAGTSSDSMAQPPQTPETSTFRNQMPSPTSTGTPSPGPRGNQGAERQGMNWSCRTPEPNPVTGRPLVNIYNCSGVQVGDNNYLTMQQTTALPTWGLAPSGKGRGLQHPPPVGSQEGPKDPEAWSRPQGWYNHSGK

Legend:
[1] = molecular target: receptor-interacting protein kinase 1 (human (endogenous in LO2)) (UniProt Q13546); experiment: co-IP; LO2 cell lysates incubated with anti-RIPK1 or anti-RIPK3 antibody, protein G-agarose beads overnight, western blot; cells treated with LPS + D-Gal for 4 h, then with YQJPF or atractylone, in Figure 8F also pre-treated with 50 uM Nec-1
[2] = molecular target: receptor-interacting protein kinase 3 (human (endogenous in LO2)) (UniProt Q9Y572); experiment: as above

binding [1]	binding [2]	Substance
binds		receptor-interacting protein kinase 3 (from UniProt Q9Y572 1-518)
	binds	receptor-interacting protein kinase 1 (from UniProt Q13546 1-671)
